The other results are listed elsewhere or left out. Single values are uncertain, as repeats are few or missing.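 Cells were imaged in 1,536-well plates, and nuclei stained with an antibody against cleaved PARP were counted against all DNA-stained nuclei to give the apoptosis fraction. Screening doses were chosen to leave most cells alive, and resting and induced cleaved-PARP levels differ strongly between cell lines.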
How the values were obtained:
Assay in all cases: cleaved PARP positive nuclei fraction relative to DMSO control; melanoma cells; higher = more apoptosis
Settings in all cases: library dose: low library concentration; 72 h
A101D = system: A101D
A2058 = system: A2058
A375 = system: A375
C32 = system: C32
CBRC013 = system: CBRC013 (line from a melanoma biopsy)
CBRC014 = system: CBRC014 (line from a melanoma biopsy)
CBRC016 = system: CBRC016 (line from a melanoma biopsy)
CBRC017 = system: CBRC017 (line from a melanoma biopsy)
CBRC034 = system: CBRC034 (line from a melanoma biopsy)
COLO792 = system: COLO792
COLO800 = system: COLO800
COLO829 = system: COLO829
G361 = system: G361
IPC-298 = system: IPC-298
IST-MEL1 = system: IST-MEL1
LOXIMVI = system: LOXIMVI
CBRC008 = system: CBRC008 (line from a melanoma biopsy)
MEL-HO = system: MEL-HO

Structure (SMILES)	cleaved PARP positive nuclei fraction (A101D) [%]	cleaved PARP positive nuclei fraction (A2058) [%]	cleaved PARP positive nuclei fraction (A375) [%]	cleaved PARP positive nuclei fraction (C32) [%]	cleaved PARP positive nuclei fraction (CBRC013) [%]	cleaved PARP positive nuclei fraction (CBRC014) [%]	cleaved PARP positive nuclei fraction (CBRC016) [%]	cleaved PARP positive nuclei fraction (CBRC017) [%]	cleaved PARP positive nuclei fraction (CBRC034) [%]	cleaved PARP positive nuclei fraction (COLO792) [%]	cleaved PARP positive nuclei fraction (COLO800) [%]	cleaved PARP positive nuclei fraction (COLO829) [%]	cleaved PARP positive nuclei fraction (G361) [%]	cleaved PARP positive nuclei fraction (IPC-298) [%]	cleaved PARP positive nuclei fraction (IST-MEL1) [%]	cleaved PARP positive nuclei fraction (LOXIMVI) [%]	cleaved PARP positive nuclei fraction (CBRC008) [%]	cleaved PARP positive nuclei fraction (MEL-HO) [%]
Cn1nnc2c(C(N)=O)ncn2c1=O [temozolomide] + Oc1nc(-c2ccc(C(F)(F)F)cc2)nc2c1CSCC2 [XAV939] (first compound 2 µM, partner dose 2 µM)	161	164	49.3	83.3	94.5	102	124	77.2	167	130	85.9	83.3	168	65.6	43.1	148	–	–
O=C(Nc1cccc(Cl)c1)Nc1ncc(CCNc2ncnc3ccsc23)s1 + CN(NC(=O)CC(=O)NN(C)C(=S)c1ccccc1)C(=S)c1ccccc1 [STA4783] (first compound 0.0008 µM, partner dose 0.006 µM)	106	165	1460	54.9	103	367	223	191	–	111	75.7	152	145	202	127	128	2060	75.1
CC(=O)c1c(C)c2cnc(Nc3ccc(N4CCNCC4)cn3)nc2n(C2CCCC2)c1=O [palbociclib] + COc1cc(Nc2ncc(F)c(Nc3ccc4c(n3)NC(=O)C(C)(C)O4)n2)cc(OC)c1OC [Tamatinib] (first compound 0.04 µM, partner dose 0.4 µM)	269	177	195	114	155	110	87.4	83.9	–	240	85.5	72.7	107	287	130	69.4	68	131
C=CCn1c(=O)c2cnc(Nc3ccc(N4CCN(C)CC4)cc3)nc2n1-c1cccc(C(C)(C)O)n1 + OCCn1cc(-c2cnc3nnn(Cc4ccc5ncccc5c4)c3n2)cn1 [PF04217903] (first compound 0.02 µM, partner dose 1 µM)	91.7	66.1	159	116	129	205	76	201	–	153	11.4	109	138	184	266	46.7	149	73.6
C#Cc1cccc(Nc2ncnc3cc(OCCOC)c(OCCOC)cc23)c1 [erlotinib] + COc1ccc(Cl)c(Nc2nc3ccccc3nc2NS(=O)(=O)c2cccc(NC(=O)C(C)(C)N)c2)c1 [XL147] (first compound 0.8 µM, partner dose 0.8 µM)	155	146	78	177	–	98.5	50.3	98.1	74.6	105	116	110	219	100	111	153	170	67.4
Cc1nc(Nc2ncc(C(=O)Nc3c(C)cccc3Cl)s2)cc(N2CCN(CCO)CC2)n1 [dasatanib] + NC(=O)Nc1cc(-c2cccc(F)c2)sc1C(=O)N[C@H]1CCCNC1 [AZD7762] (first compound 0.004 µM, partner dose 0.02 µM)	187	75.3	54	190	71.5	94.6	187	404	–	113	77.6	70.2	101	134	110	26.7	54.8	79
C[C@]1(c2nc3c(C(N)=O)cccc3[nH]2)CCCN1 [Veliparib] + O=c1cc(-c2cccc3c2Sc2ccccc2S3)oc(N2CCOCC2)c1 [KU55933] (first compound 1.4 µM, partner dose 1 µM)	130	104	116	28.6	57.7	108	79.9	174	98.9	34.6	109	42.4	48.9	80.4	87.3	33.5	–	–
Cc1nc(Nc2ncc(C(=O)Nc3c(C)cccc3Cl)s2)cc(N2CCN(CCO)CC2)n1 [dasatanib] + C[C@]1(c2nc3c(C(N)=O)cccc3[nH]2)CCCN1 [Veliparib] (first compound 0.004 µM, partner dose 1.4 µM)	218	269	257	80.4	–	111	79.2	104	62	144	140	115	114	87.9	50.6	290	73.4	200
CC1(C)NC(=O)N(c2ccc([N+](=O)[O-])c(C(F)(F)F)c2)C1=O [nilutamide] + CO[C@@H]1[C@H](N(C)C(=O)c2ccccc2)C[C@H]2O[C@]1(C)n1c3ccccc3c3c4c(c5c6ccccc6n2c5c31)C(=O)NC4 [Midostaurin] (first compound 1 µM, partner dose 0.08 µM)	121	129	242	61.1	107	79	67.8	79	–	122	166	132	114	96.4	49.6	379	74.4	397
Nc1cccc2c1CN(C1CCC(=O)NC1=O)C2=O (configuration not stated) [lenalidomide] + COc1cc2c(Oc3ccc4[nH]c(C)cc4c3F)ncnc2cc1OCCCN1CCCC1 [cediranib] (first compound 1 µM, partner dose 0.4 µM)	155	100	78.9	137	135	86.3	85.4	82.1	–	121	86.9	170	57.3	98.4	35.3	89.7	105	35.4
Cc1cc(N2CCOCC2)cc2[nH]c(-c3c(NC[C@@H](O)c4cccc(Cl)c4)cc[nH]c3=O)nc12 + Oc1nc(-c2ccc(C(F)(F)F)cc2)nc2c1CSCC2 [XAV939] (first compound 0.2 µM, partner dose 2 µM)	142	85.3	360	249	92.7	98.1	37.9	88.8	84.7	138	123	128	109	54.3	196	66.9	–	–
OCc1c[nH]c2ccccc12 [Indole-3-carbinol] + Clc1ccc(Nc2nnc(Cc3ccncc3)c3ccccc23)cc1 [vatalanib] (first compound 0.8 µM, partner dose 2 µM)	94.8	230	110	166	–	101	41.7	118	135	46.5	97	94.5	152	276	41.7	83.5	164	235
Cc1ccc(NC(=O)c2cccc(N(C)C)c2)cc1NC(=O)c1ccc(O)cc1 + CC(C)(C)c1cnc(CSc2cnc(NC(=O)C3CCNCC3)s2)o1 [SNS-032] (first compound 2 µM, partner dose 0.01 µM)	85.4	76.7	38.6	73.2	53.2	86.9	115	85	–	28.3	143	186	29.8	109	183	75.7	27.9	69.1
C[C@]1(c2nc3c(C(N)=O)cccc3[nH]2)CCCN1 [Veliparib] + COc1cc2c(Oc3ccc4[nH]c(C)cc4c3F)ncnc2cc1OCCCN1CCCC1 [cediranib] (first compound 1.4 µM, partner dose 0.4 µM)	47.4	92.3	134	115	140	105	154	86.3	–	41.2	147	23.9	147	46.3	91.5	67.9	109	45.2
CC(C)(C)c1cnc(CSc2cnc(NC(=O)C3CCNCC3)s2)o1 + COc1cc2ncnc(Nc3ccc(Oc4ccccc4)cc3)c2cc1OC [SrcI1] (first compound 0.01 µM, partner dose 2 µM)	160	44.2	143	76.9	108	90.6	46.8	76.1	47.7	120	92.1	136	295	84.3	87.8	144	–	–
O=C(CCCCCCC(=O)Nc1ccccc1)NO [vorinostat] + Cc1ccc(NC(=O)c2cccc(N(C)C)c2)cc1NC(=O)c1ccc(O)cc1 [ZM336372] (first compound 0.08 µM, partner dose 2 µM)	93.3	80	74.4	124	97.2	102	224	129	–	38.6	28.1	98.7	94.3	117	161	72.4	75.7	87
O=C(Nc1cccc(Cl)c1)Nc1ncc(CCNc2ncnc3ccsc23)s1 + O=C(O)c1ccc(-c2c[nH]c3ncc(-c4ccccc4)cc23)cc1C1CCCC1 [GSK650394] (first compound 0.0008 µM, partner dose 0.16 µM)	39.3	132	53.8	68.3	137	98.7	362	122	–	243	116	94.3	158	49.1	85.9	46.7	533	77.1
C=CCNC1=C2C[C@@H](C)C[C@H](OC)[C@H](O)[C@@H](C)/C=C(\C)[C@H](OC(N)=O)[C@@H](OC)/C=C\C=C(/C)C(=O)NC(=CC1=O)C2=O [Tanespimycin] + Cn1nnc2c(C(N)=O)ncn2c1=O [temozolomide] (first compound 0.002 µM, partner dose 2 µM)	102	94.4	65.8	163	–	124	88.7	115	107	99.1	105	89.6	68.1	81.8	312	92.4	137	100

Pulled one by one from the list above (2):
Structure (SMILES)	cleaved PARP positive nuclei fraction (A101D) [%]	cleaved PARP positive nuclei fraction (A2058) [%]	cleaved PARP positive nuclei fraction (A375) [%]	cleaved PARP positive nuclei fraction (C32) [%]	cleaved PARP positive nuclei fraction (CBRC013) [%]	cleaved PARP positive nuclei fraction (CBRC014) [%]	cleaved PARP positive nuclei fraction (CBRC016) [%]	cleaved PARP positive nuclei fraction (CBRC017) [%]	cleaved PARP positive nuclei fraction (CBRC034) [%]	cleaved PARP positive nuclei fraction (COLO792) [%]	cleaved PARP positive nuclei fraction (COLO800) [%]	cleaved PARP positive nuclei fraction (COLO829) [%]	cleaved PARP positive nuclei fraction (G361) [%]	cleaved PARP positive nuclei fraction (IPC-298) [%]	cleaved PARP positive nuclei fraction (IST-MEL1) [%]	cleaved PARP positive nuclei fraction (LOXIMVI) [%]	cleaved PARP positive nuclei fraction (CBRC008) [%]	cleaved PARP positive nuclei fraction (MEL-HO) [%]
C[C@]1(c2nc3c(C(N)=O)cccc3[nH]2)CCCN1 [Veliparib] + COc1cc2c(Oc3ccc4[nH]c(C)cc4c3F)ncnc2cc1OCCCN1CCCC1 [cediranib] (first compound 1.4 µM, partner dose 0.4 µM)	47.4	92.3	134	115	140	105	154	86.3	–	41.2	147	23.9	147	46.3	91.5	67.9	109	45.2
OCc1c[nH]c2ccccc12 [Indole-3-carbinol] + Clc1ccc(Nc2nnc(Cc3ccncc3)c3ccccc23)cc1 [vatalanib] (first compound 0.8 µM, partner dose 2 µM)	94.8	230	110	166	–	101	41.7	118	135	46.5	97	94.5	152	276	41.7	83.5	164	235
